Data taken from paper PMC10567728, “Targeted imaging of uPAR expression in vivo with cyclic AE105 variants” (Scientific Reports, 2023).
Positions of bridges follow the written chain, without caps; N, C: chain ends. Non-standard residues stand in square brackets, D forms with d. Residues, ends and D or L forms follow the SMILES beside them. Cha = N[C@@H](CC1CCCCC1)C(=O)O

Assay: NMR C-alpha secondary chemical shifts, helical propensity of free peptides
Type: physicochemical
Settings: free peptide, Cα SCSs Cha2-Leu7, 3.1 ppm as reference for 100% helicity, 5 °C, pH 7.0

CC(C)C[C@H](NC(=O)[C@H](Cc1ccc(O)cc1)NC(=O)[C@@H](CCCNC(=N)N)NC(=O)[C@@H](CO)NC(=O)[C@H](Cc1ccccc1)NC(=O)[C@H](CC1CCCCC1)NC(=O)[C@H](CC(=O)O)NC(=O)CNC(=O)CNC(=O)[C@@H](CO)NC(=O)CNC(=O)[C@H](CCC(=O)O)NC(=O)[C@@H](N)CCC(=O)O)C(=O)N[C@@H](Cc1c[nH]c2ccccc12)C(=O)N[C@@H](CO)C(=O)O [compound 4] (H-EEG[dS]GGD[Cha]F[dS][dR]YLWS-OH; N-terminus assumed)
helical propensity: 15%

CC(C)C[C@@H]1NC(=O)[C@H](Cc2ccc(O)cc2)NC(=O)[C@H](NC(=O)[C@@H](CO)NC(=O)[C@H](Cc2ccccc2)NC(=O)[C@H](CC2CCCCC2)NC(=O)[C@H](CC(=O)O)NC(=O)CNC(=O)CNC(=O)[C@@H](CO)NC(=O)CNC(=O)[C@H](CCC(=O)O)NC(=O)[C@@H](N)CCC(=O)O)CSSC[C@@H](C(=O)O)NC(=O)[C@H](Cc2c[nH]c3ccccc23)NC1=O [compound 6] (H-EEG[dS]GGD[Cha]F[dS][dC]YLWC-OH; disulfide 11-15; N-terminus assumed)
helical propensity: 45%
